PubChem BioAssay AID493014 (National Center for Advancing Translational Sciences (NCATS), 2011)
This is one part of the list. The main result of the screen is listed elsewhere. These columns were measured beside it and carry no call. The list favours compounds with an active or inconclusive main result. Potencies come from curve fits of mixed quality, noted in brackets.

Assay: qHTS Assay to Find Inhibitors of Chronic Active B-Cell Receptor Signaling
Settings: ABC-DLBCL IkBa-CBG/CBR reporter, luminescence ratio (green luciferase fused to IkBa over red control in TMD8 lymphoma cells), 4 h
Summary of the method: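 Cell line TMD8 (human ABC DLBCL), stably expressing tet-inducible CBG68-IkBa fusion and CBR; IMDM/0.5% FBS; cpd up to 46 uM; dox induction, 4 h, 37C/5% CO2; dual luminescence; green/red ratio; MG132 control.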

[1] = measured here: CBR red luminescence, cell number
[2] = measured here: IkBa-CBG green luminescence

Compound | AC50 [1] | AC50 [2]
Cn1cc(CN2CCN(CCO)CC2)c(-c2ccc(Oc3ccccc3)cc2)n1 | 14.1 µM [rising, single point] | –
Cn1nccc1C(=O)NC1CCCc2c1cnn2-c1ccc(F)cc1F (centres undefined) | 0.562 µM [rising, full curve, poor fit] | –
COc1ccc(-c2cn[nH]c2-c2ccc(OCC(=O)NN)cc2O)cc1OC | 35.5 µM [falling, single point] | –
CC(=O)c1cccc(NC(=O)C(C)N2CCc3ccccc3C2)c1 (centres undefined) | 31.6 µM [rising, single point] | –
O=C(/C(=C/c1ccc(Cl)cc1)c1nc2ccccc2[nH]1)c1ccccc1 | 5.62 µM [rising, single point] | 3.55 µM [falling, partial curve, poor fit]
OCCNc1nc2ccccc2n1-c1ncnc2sc3c(c12)CCC3 | 6.51 µM [rising, single point] | –
COc1ccc(CCNC(=O)c2ccccc2)cc1 | 11.2 µM [falling, partial curve] | –
COc1ccc(CCNC(=O)CCSCc2ccccc2F)cc1OC | 0.1 µM [rising, full curve, poor fit] | –
O=C(C=C=Nc1ccccc1)C(=O)N=C=Cc1ccccc1 | 11.2 µM [falling, single point] | –
COc1ccc(C2CC(C(F)(F)F)n3nc(CO)c(Cl)c3N2)cc1OC (centres undefined) | 35.5 µM [rising, single point] | –
Cc1ccc(C(=O)COC(=O)c2nc(Cl)ccc2Cl)cc1 | 7.31 µM [rising, single point] | –
O=C(NNC(=S)Nc1ccccc1C(F)(F)F)c1cccnc1 | 14.1 µM [falling, partial curve, poor fit] | –
O=C(Nc1ccc(Cl)cn1)C1CCN(c2ncnc3c2nc2n3CCCCC2)CC1 | – | 15.8 µM [rising, single point]
NC(=O)c1ccc(Oc2ccc3ccc(=O)oc3c2)c([N+](=O)[O-])c1 | 15.8 µM [falling, single point] | –
Cc1ccc2c(c1)c1c3n2CCN(C(=O)C2CC2)C3CCC1 (centres undefined) | 29.1 µM [rising, single point] | 32.6 µM [falling, partial curve, poor fit]
CC(C)OC(=O)c1ccc(NC(=O)c2ccccc2)cc1 | 0.517 µM [rising, full curve, poor fit] | –
CS(=O)(=O)c1ccc(S(=O)CC(=O)OCc2ccccc2)c([N+](=O)[O-])c1 (centres undefined) | 15.8 µM [falling, partial curve] | –
CC1=C/C(=N\NC(=O)c2ccc(O)cc2)CC1 | 8.2 µM [falling, partial curve] | –
COc1ccc(S(=O)(=O)NCC(c2ccco2)S(=O)(=O)c2ccc(C)cc2)cc1F (centres undefined) | 22.4 µM [falling, single point] | –
C=CCn1c(C)cc(C(=O)Cn2ncc(Cl)c(Cl)c2=O)c1C | 20.6 µM [falling, single point] | 16.4 µM [rising, partial curve, poor fit]
COc1cccc(/C=C/C(=O)NNC(=O)c2cc(C)oc2C)c1 | 10.3 µM [falling, partial curve, poor fit] | –

Four successive entries already listed:
Compound | AC50 [1] | AC50 [2]
CC1=C/C(=N\NC(=O)c2ccc(O)cc2)CC1 | 8.2 µM [falling, partial curve] | –
COc1ccc(S(=O)(=O)NCC(c2ccco2)S(=O)(=O)c2ccc(C)cc2)cc1F (centres undefined) | 22.4 µM [falling, single point] | –
C=CCn1c(C)cc(C(=O)Cn2ncc(Cl)c(Cl)c2=O)c1C | 20.6 µM [falling, single point] | 16.4 µM [rising, partial curve, poor fit]
COc1cccc(/C=C/C(=O)NNC(=O)c2cc(C)oc2C)c1 | 10.3 µM [falling, partial curve, poor fit] | –

Going on with the list.

Compound | AC50 [1] | AC50 [2]
CC(C)c1ccc(C(N)=S)cc1 | 10 µM [rising, partial curve] | –
c1ccc(CSc2nnc(Cc3ccccn3)o2)cc1 | 12.6 µM [rising, partial curve, poor fit] | –
C=CCn1c(Oc2ccccc2F)nc2c1c(=O)n(C)c(=O)n2C | 1.26 µM [falling, full curve] | –
O=C1CN(c2ccccc2)C(=O)N1 | 12.6 µM [rising, partial curve, poor fit] | –
COc1ccccc1/C=N/NC(=S)Nc1cccnc1 | 0.562 µM [falling, full curve, poor fit] | 3.55 µM [falling, full curve]
CCOC(=O)C1=C(c2ccccc2)NC(=S)NC1c1ccc(C)c([N+](=O)[O-])c1 (centres undefined) | 29.1 µM [falling, single point] | –
COc1ccc2nc(NC(=O)c3ccccc3F)sc2c1 | 3.55 µM [falling, partial curve] | –
O=C(CN(Cc1ccco1)C(=O)c1ccc(Cl)cc1)Nc1ccc(Cl)c(Cl)c1 | 11.6 µM [rising, partial curve] | –
COC(=O)c1c(NC(=O)c2ccco2)sc(C)c1C | 1.16 µM [falling, full curve] | –
COCCN(C(=O)CCCc1nc2ccccc2s1)c1c(N)n(CC(C)C)c(=O)[nH]c1=O | 23.1 µM [rising, partial curve, poor fit] | –
CCNC(=O)NC(=O)CSc1nnc(-c2c[nH]c3ccccc23)o1 | 11.2 µM [falling, single point] | –
O=C1CCc2cc(S(=O)(=O)NCCC(=O)NC3CCN(Cc4ccccc4)CC3)ccc2N1 | 35.5 µM [rising, single point] | –
Cc1c(Cl)cccc1NC(=O)CC1Oc2ccccc2NC1=O (centres undefined) | 15.8 µM [falling, single point] | –
CCCCOC(=O)Nc1nc(CC(=O)OCC)cs1 | 9.2 µM [rising, partial curve] | –
O=S(=O)(Nc1ccc2c3c(cccc13)CC2)c1ccc(F)cc1 | 20 µM [falling, partial curve, poor fit] | –
N#Cc1c(N)nc(SCc2ccncc2)c(C#N)c1-c1cccs1 | 18.4 µM [falling, partial curve] | –
COc1cc(CO)c(OC)c([N+](=O)[O-])c1 | – | 31.6 µM [falling, partial curve, poor fit]
CC(C)(C)C1CCC(=O)N(CCSc2ccccc2)CC1 (centres undefined) | 3.55 µM [rising, partial curve, poor fit] | –
Cc1cc(C)n2nc(CC#N)c(C#N)c2n1 | 2.82 µM [falling, partial curve, poor fit] | 3.98 µM [falling, partial curve, poor fit]
O=Cc1ccc(N2CCCC2)c(F)c1 | 10.3 µM [falling, partial curve, poor fit] | –
COc1ccccc1N1CCN(c2nc3c(C)cccn3c(=O)c2C=O)CC1 | 3.55 µM [rising, full curve, poor fit] | –

Compound | AC50 [1] | AC50 [2]
CCCCn1c(-c2nn(C)cc2Cl)n[nH]c1=S | 5.01 µM [rising, single point] | –
CSc1ccc(C(=O)C2CCCN(C(=O)c3cc4cc(F)ccc4[nH]3)C2)cc1 (centres undefined) | 35.5 µM [rising, single point] | –
O=C(NCc1cccs1)c1ccc2c(=O)n3nc(Nc4ccccc4)sc3nc2c1 | 35.5 µM [falling, single point] | –
Cc1noc(C)c1COc1ccc(C(=O)N2CCN(S(=O)(=O)c3cccc(F)c3)CC2)cc1 | 0.231 µM [rising, full curve] | –
Cc1ccc2c(c1Br)C(O)(CC(=O)c1ccc(F)cc1)C(=O)N2 (centres undefined) | 11.2 µM [falling, partial curve, poor fit] | –
O=C1CCC(=O)N1c1cccc(-c2nc3ccccc3o2)c1 | 0.517 µM [falling, partial curve, poor fit] | –
COc1ccc(-c2cn[nH]c2-c2ccc(OC)cc2)cc1 | 10 µM [falling, partial curve, poor fit] | –
C/C(=N\NC(=O)c1ccc(Br)cc1)C1C(=O)c2ccccc2C1=O | 10.3 µM [falling, partial curve, poor fit] | –
COC(=O)c1ccc(NC(=O)c2ccc3nccnc3c2)cc1 | 17.8 µM [falling, partial curve, poor fit] | –
O=C(N/N=C/c1c(Cl)cccc1Cl)c1ccc(F)cc1 | 35.5 µM [falling, single point] | –
COc1cccc(NC(=O)N(C2CCCCC2)C(C)c2cccs2)c1 (centres undefined) | 14.1 µM [falling, single point] | –
Cc1cc(C(=O)COc2cccnc2[N+](=O)[O-])c(C)n1-c1ccccc1F | 17.8 µM [falling, single point] | –
CCCCCOc1ccc(Br)cc1/C(C)=N/NC1=NCCN1 | 23.1 µM [rising, single point] | 16.4 µM [falling, single point]
Cc1cccc(-n2c(SCC(=O)Nc3ncc(Cl)cc3Cl)nc3ccccc32)c1 | 18.4 µM [falling, single point] | –
Cc1ccc(-n2c(SCC(=O)N/N=C/C=C/c3ccccc3[N+](=O)[O-])nc3ccccc3c2=O)cc1 | 2.31 µM [falling, full curve] | –
COC(=O)c1ccc(N2CCCCC2)c(NS(=O)(=O)c2ccc(C)cc2)c1 | 32.6 µM [rising, single point] | –
COc1ccc(C2c3c(-c4ccccc4O)n[nH]c3C(=O)N2CCc2ccc(OC)c(OC)c2)cc1 (centres undefined) | 0.82 µM [falling, full curve, poor fit] | –
O=C(Cn1cc([N+](=O)[O-])nc1[N+](=O)[O-])N1CCN(c2ccccc2)CC1 | 14.1 µM [falling, partial curve, poor fit] | –
N#CCC(=O)N/N=C/c1c2ccccc2cc2ccccc12 | 15.8 µM [falling, partial curve, poor fit] | –
Cc1ccc2[nH]c(C(=O)N/N=C/c3ccccc3C(=O)O)c(-c3ccccc3)c2c1 | – | 3.98 µM [falling, full curve]
Cc1ccc2nsnc2c1S(=O)(=O)N(Cc1ccco1)Cc1cc2cccc(C)c2[nH]c1=O | 35.5 µM [rising, single point] | –
